Results are given in words; binding and its absence hold for the method and conditions named. Some results given as binding are weak or reduced against the parent protein; the word gives no strength.
Legend:
Assay in all cases: nuclear tethering assay (LacR bait on a LacO array, GFP prey); U2OS-LacO cells co-transfected with mCherry-LacR bait and GFP-tagged prey plasmids; GFP at the mCherry focus against the rest of the nucleus (dot/nucleus ratio); cells fixed with 4% PFA before imaging
[1] = biological target: T1, mCherry-LacR-Tbx2 (UniProt Q60707)
T1 sequence: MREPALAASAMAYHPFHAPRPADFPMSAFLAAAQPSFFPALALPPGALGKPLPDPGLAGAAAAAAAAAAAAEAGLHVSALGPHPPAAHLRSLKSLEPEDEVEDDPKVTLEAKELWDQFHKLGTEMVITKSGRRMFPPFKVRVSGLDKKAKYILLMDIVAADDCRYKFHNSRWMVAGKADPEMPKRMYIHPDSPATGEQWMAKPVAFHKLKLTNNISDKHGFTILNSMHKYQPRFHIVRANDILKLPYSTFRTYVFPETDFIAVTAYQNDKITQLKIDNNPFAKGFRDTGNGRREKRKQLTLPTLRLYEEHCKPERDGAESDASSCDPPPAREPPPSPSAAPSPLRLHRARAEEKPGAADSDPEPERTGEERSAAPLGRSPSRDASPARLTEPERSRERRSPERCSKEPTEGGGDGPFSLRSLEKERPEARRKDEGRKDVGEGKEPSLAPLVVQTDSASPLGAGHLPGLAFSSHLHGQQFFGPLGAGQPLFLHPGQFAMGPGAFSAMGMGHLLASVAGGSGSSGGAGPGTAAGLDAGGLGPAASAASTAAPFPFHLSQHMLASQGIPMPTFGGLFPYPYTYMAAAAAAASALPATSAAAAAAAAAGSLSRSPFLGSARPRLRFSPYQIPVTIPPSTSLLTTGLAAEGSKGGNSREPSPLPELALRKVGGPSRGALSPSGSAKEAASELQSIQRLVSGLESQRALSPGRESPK

The chains behind the UniProt entries cited, without tags or fusion partners.
UniProt Q9BSM1: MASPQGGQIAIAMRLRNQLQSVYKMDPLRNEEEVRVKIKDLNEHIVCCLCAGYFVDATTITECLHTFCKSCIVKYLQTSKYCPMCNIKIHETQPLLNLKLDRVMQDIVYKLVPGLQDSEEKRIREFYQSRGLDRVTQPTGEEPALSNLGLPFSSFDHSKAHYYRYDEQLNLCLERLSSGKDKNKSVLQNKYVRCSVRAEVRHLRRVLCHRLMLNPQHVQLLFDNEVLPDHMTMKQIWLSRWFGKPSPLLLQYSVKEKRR

[2] = biological target: T2, mCherry-LacR-Tbx2 C-terminal region (UniProt Q60707)
T2 sequence: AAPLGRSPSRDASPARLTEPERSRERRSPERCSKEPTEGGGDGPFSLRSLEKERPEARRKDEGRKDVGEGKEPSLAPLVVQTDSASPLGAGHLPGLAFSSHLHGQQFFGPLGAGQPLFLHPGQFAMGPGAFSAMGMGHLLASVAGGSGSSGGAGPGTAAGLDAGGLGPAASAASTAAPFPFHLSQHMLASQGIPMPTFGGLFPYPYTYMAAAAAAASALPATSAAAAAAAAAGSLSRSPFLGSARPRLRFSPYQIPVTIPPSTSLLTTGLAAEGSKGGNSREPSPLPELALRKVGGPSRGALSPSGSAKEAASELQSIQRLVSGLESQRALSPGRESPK

[3] = biological target: T3, mCherry-LacR-Tbx2 N-terminal domain containing the T-box (UniProt Q60707)
T3 sequence: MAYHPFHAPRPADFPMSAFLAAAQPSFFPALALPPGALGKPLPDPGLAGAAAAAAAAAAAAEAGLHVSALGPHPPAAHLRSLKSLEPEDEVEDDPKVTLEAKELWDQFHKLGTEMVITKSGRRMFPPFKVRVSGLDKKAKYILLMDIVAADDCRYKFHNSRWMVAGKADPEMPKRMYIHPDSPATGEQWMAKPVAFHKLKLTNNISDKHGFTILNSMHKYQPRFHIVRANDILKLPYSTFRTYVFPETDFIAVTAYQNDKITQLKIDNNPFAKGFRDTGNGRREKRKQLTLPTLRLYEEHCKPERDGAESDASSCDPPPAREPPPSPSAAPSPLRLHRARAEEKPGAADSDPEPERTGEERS

binding [1]: binds
binding [2]: binds
binding [3]: binds
Substance: EGFP-PCGF1 (from UniProt Q9BSM1 1-259)

— paper PMC8653791, “TBX2 controls a proproliferative gene expression program in melanoma”
